Experimental data: PubChem BioAssay AID504804 (Drosophila RNAi Screening Center, 2011)
Test: 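Fly genes whose loss lessens doxorubicin-driven cell death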 (primary screen). System: Drosophila Kc cells. Knock-down reagent: long dsRNA against Drosophila genes, 0.5 µg dsRNA per well. Time to read-out: 96 h (48 h knock-down, then 48 h drug). Conditions: doxorubicin 5 µg/ml for 48 h, added 48 h after dsRNA. Read-out: 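Luminescent ATP counts per replicate, not normalised, reflecting viable cells after 48 h dsRNA knock-down followed by 48 h of 5 µg/ml doxorubicin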. Direction: raw ATP luminescence: higher = more viable cells, protection from doxorubicin. Call rule: 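Active when both duplicate wells lie at least 2 SD above the plate mean and protection is confirmed by rescreening and independent dsRNAs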.
The screen tested about 19,000 reagents; below is an unselected part of those that have a named target and a result. Of all reagents, 47 (0.25%) got an active call. 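Signals are raw, not normalised; exact z-scores behind calls not deposited; actives needed confirmation, so some wells reaching 2 SD are inactive.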 Entries without a mark were called inactive.

blp [DRSC15757] — raw ATP luminescence, replicate 1 = 62820; raw ATP luminescence, replicate 2 = 70210
nvy [DRSC04705] — raw ATP luminescence, replicate 1 = 59407; raw ATP luminescence, replicate 2 = 63827
CG34320 (retired record) [DRSC17682] — raw ATP luminescence, replicate 1 = 2.12e5; raw ATP luminescence, replicate 2 = 2.08e5
CG11123 [DRSC06040] — raw ATP luminescence, replicate 1 = 49897; raw ATP luminescence, replicate 2 = 92410
MFS14 [DRSC06524] — raw ATP luminescence, replicate 1 = 75353; raw ATP luminescence, replicate 2 = 66053
CG17919 [DRSC12571] — raw ATP luminescence, replicate 1 = 42067; raw ATP luminescence, replicate 2 = 36833
RpS16 [DRSC04442] — raw ATP luminescence, replicate 1 = 28083; raw ATP luminescence, replicate 2 = 28923
RhoGEF2 [DRSC07531] — raw ATP luminescence, replicate 1 = 61617; raw ATP luminescence, replicate 2 = 75740
eIF3a [DRSC12339] — raw ATP luminescence, replicate 1 = 66053; raw ATP luminescence, replicate 2 = 51403
Mi-2 [DRSC11222] — raw ATP luminescence, replicate 1 = 84110; raw ATP luminescence, replicate 2 = 72367
peb [DRSC18817] — raw ATP luminescence, replicate 1 = 27620; raw ATP luminescence, replicate 2 = 28470
CG14676 [DRSC12262] — raw ATP luminescence, replicate 1 = 58213; raw ATP luminescence, replicate 2 = 55067
CG11885 [DRSC00329] — raw ATP luminescence, replicate 1 = 1.56e5; raw ATP luminescence, replicate 2 = 2.14e5
CG5274 [DRSC11774] — raw ATP luminescence, replicate 1 = 25580; raw ATP luminescence, replicate 2 = 27480
CG10934 [DRSC06017] — raw ATP luminescence, replicate 1 = 61110; raw ATP luminescence, replicate 2 = 56647
CG3513 [DRSC00608] — raw ATP luminescence, replicate 1 = 36060; raw ATP luminescence, replicate 2 = 46767

Copied from the list.
CG17919 [DRSC12571], raw ATP luminescence, replicate 2 → 36833
eIF3a [DRSC12339], raw ATP luminescence, replicate 1 → 66053
For “raw ATP luminescence, replicate 2”, peb [DRSC18817] reads 28470
RpS16 [DRSC04442], raw ATP luminescence, replicate 2 → 28923

More results follow.
fz [DRSC11348] — raw ATP luminescence, replicate 1 = 57710; raw ATP luminescence, replicate 2 = 48673
CG13920 [DRSC08389] — raw ATP luminescence, replicate 1 = 62493; raw ATP luminescence, replicate 2 = 62907
CG10565 [DRSC11620] — raw ATP luminescence, replicate 1 = 23730; raw ATP luminescence, replicate 2 = 21140
CG34038 [DRSC04039] — raw ATP luminescence, replicate 1 = 78400; raw ATP luminescence, replicate 2 = 79900
Svil [DRSC07981] — raw ATP luminescence, replicate 1 = 1.95e5; raw ATP luminescence, replicate 2 = 1.63e5
Svil [DRSC08296] — raw ATP luminescence, replicate 1 = 67203; raw ATP luminescence, replicate 2 = 63500
CG11406 [DRSC04010] — raw ATP luminescence, replicate 1 = 89567; raw ATP luminescence, replicate 2 = 1.09e5
CG11406 [DRSC04108] — raw ATP luminescence, replicate 1 = 42733; raw ATP luminescence, replicate 2 = 49287
CG15317 [DRSC18005] — raw ATP luminescence, replicate 1 = 3.64e5; raw ATP luminescence, replicate 2 = 3.41e5
CG30412 [DRSC04564] — raw ATP luminescence, replicate 1 = 66290; raw ATP luminescence, replicate 2 = 68413
CG4730 [DRSC15633] — raw ATP luminescence, replicate 1 = 46990; raw ATP luminescence, replicate 2 = 74080
spo [DRSC11127] — raw ATP luminescence, replicate 1 = 73087; raw ATP luminescence, replicate 2 = 78493
